{"source": "the supplement of paper PMC8326762", "about": "“A Small Molecule Inhibitor of Pex3–Pex19 Interaction Disrupts Glycosome Biogenesis and Causes Lethality in Trypanosoma brucei” (Frontiers in Cell and Developmental Biology, 2021)", "note": "Counter-ions that a name gives are not always drawn. Some of the results follow. This is a noisy data set.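 Yeast growth was read as optical density at 600 nm. The two-hybrid strains grew without histidine, so growth needed the Pex3–Pex19 binding; a compound counted as trypanosome-selective if it cut growth of the trypanosome-pair strain by more than 65% and the human-pair strain by less than 65%.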"}
{"tested_on": "Saccharomyces cerevisiae HF7c pdr5Δ", "assay": "general growth inhibition of yeast HF7c pdr5Δ in -Leu -Trp medium, relative to DMSO; higher = stronger general growth inhibition", "settings": "100 µM; 24 h", "units": {"general growth inhibition": "%"}}
{"smiles": "Cc1ccccc1/C=C/C1=NCCN1", "note": "[Metrazoline oxalate]", "general growth inhibition": 50.9}
{"smiles": "CC(C)(Oc1ccc(CCNC(=O)c2ccc(Cl)cc2)cc1)C(=O)O", "note": "[Bezafibrate]", "general growth inhibition": 26.7}
{"smiles": "N[C@@H](Cc1ccc(O)c(I)c1)C(=O)O", "note": "[3-Iodo-L-tyrosine]", "general growth inhibition": 58.1}
{"smiles": "CCC(=O)c1ccc2c(c1)N(CCCN(C)C)c1ccccc1S2", "note": "[Propionylpromazine hydrochloride]", "general growth inhibition": 39.7}
{"smiles": "OCC1OC(n2cnc3c(NC4CCCCC4)ncnc32)C(O)C1O", "note": "(centres undefined) [N6-Cyclohexyladenosine]", "general growth inhibition": 26.6}
{"smiles": "O=C(c1ccc(OCCN2CCCCC2)cc1)c1c(-c2ccc(O)cc2)sc2cc(O)ccc12", "note": "[Raloxifene hydrochloride]", "general growth inhibition": 33.6}
{"smiles": "CN1CCN(CCCN2c3ccccc3Sc3ccc(C(F)(F)F)cc32)CC1", "note": "[Trifluoperazine dihydrochloride]", "general growth inhibition": 40.2}
{"smiles": "CN1CCc2ccccc2Cc2[nH]c3ccccc3c2CC1", "general growth inhibition": 48.4}
{"smiles": "O=C(O)C1=CC(=C(c2ccc(O)c(C(=O)O)c2)c2ccc(O)c(C(=O)O)c2)C=CC1=O", "note": "[Aurintricarboxylic acid]", "general growth inhibition": 59}
{"smiles": "CCCN(CCC)CCc1cccc2c1CC(=O)N2", "note": "[Ropinirole hydrochloride]", "general growth inhibition": 43}
{"smiles": "O=C1CCc2cc(OCCCCc3nnnn3C3CCCCC3)ccc2N1", "note": "[Cilostazol]", "general growth inhibition": 25.7}
{"smiles": "Nc1ncnc2c1ncn2[C@@H]1O[C@H](COP(=O)(O)OP(=O)(O)OP(=O)(O)OP(=O)(O)OC[C@@H]2O[C@H](n3cnc4c(N)ncnc43)C(O)[C@@H]2O)[C@H](O)C1O", "note": "(some centres undefined) [P1,P4-Di(adenosine-5')tetraphosphate triammonium]", "general growth inhibition": 36.7}
{"smiles": "CCN1CCC[C@H]1CNC(=O)c1c(O)c(Cl)cc(Cl)c1OC", "note": "[S(+)-Raclopride L-tartrate]", "general growth inhibition": 45.2}
{"smiles": "CC1COc2c(N3CCN(C)CC3)c(F)cc3c(=O)c(C(=O)O)cn1c23", "note": "(centres undefined) [Ofloxacin]", "general growth inhibition": 48.9}
{"smiles": "NNc1nncc2ccccc12", "note": "[Hydralazine hydrochloride]", "general growth inhibition": 28.8}
{"smiles": "CC[n+]1c(/C=C/C=C2/N(C)c3ccccc3C2(C)C)sc2ccccc21", "general growth inhibition": 84}
{"smiles": "CC(C)NCC(O)c1ccc(O)c(O)c1", "note": "(single isomer, unassigned; (-)) [(-)-Isoproterenol hydrochloride]", "general growth inhibition": 41.8}
{"smiles": "CC(C)(NS(=O)(=O)c1ccc(Oc2ccc(F)cc2)cc1)C(=O)NO", "general growth inhibition": 30.8}
{"smiles": "O=C(O)CCCCCCCC(=O)O", "note": "[Azelaic acid]", "general growth inhibition": 26.3}
{"smiles": "Nc1ccc(S(=O)(=O)Nc2ccnn2-c2ccccc2)cc1", "note": "[Sulfaphenazole]", "general growth inhibition": 43.4}
{"smiles": "CCCCCCCC/C=C\\CCCCCCCC(=O)NCCO", "note": "[N-Oleoylethanolamine]", "general growth inhibition": 35.2}
{"smiles": "CCC(NC(C)C)C(O)c1ccc(O)c(O)c1", "note": "(centres undefined) [Isotharine mesylate]", "general growth inhibition": 53.2}
{"smiles": "CC(C)NCC(O)COc1ccc(COCCOC(C)C)cc1", "note": "(centres undefined) [Bisoprolol hemifumarate salt]", "general growth inhibition": 6.54}
{"smiles": "Nc1ncnc2c1ncn2[C@@H]1O[C@@H]2COP(=O)(O)O[C@H]2[C@H]1O", "note": "[Adenosine 3',5'-cyclic monophosphate]", "general growth inhibition": 8.87}
{"smiles": "CC(N)C(=O)OC(C)(C)Cc1ccc(Cl)cc1", "note": "(centres undefined) [Alaproclate hydrochloride]", "general growth inhibition": 45.7}
{"smiles": "CC(=O)[C@]1(O)Cc2c(O)c3c(c(O)c2[C@@H](O[C@H]2C[C@H](N)[C@H](O)[C@H](C)O2)C1)C(=O)c1ccccc1C3=O", "note": "[Idarubicin]", "general growth inhibition": 86.2}
{"smiles": "CC1=Nc2ccc(Cl)cc2S(=O)(=O)N1", "note": "[Diazoxide]", "general growth inhibition": 10.4}
{"smiles": "Oc1ccc(C2CNCCc3c2cc(O)c(O)c3Cl)cc1", "note": "(centres undefined) [Fenoldopam bromide]", "general growth inhibition": -2.34}
{"smiles": "CCCN[C@H]1CCc2nc(N)sc2C1", "note": "[Pramipexole dihydrochloride]", "general growth inhibition": 41.4}
{"smiles": "NCCc1c[nH]cn1", "note": "[Histamine dihydrochloride]", "general growth inhibition": 39.9}
{"smiles": "C[C@]12CCC(=O)C=C1CC[C@@H]1[C@@H]2CC[C@@]2(C)[C@H]1CC[C@]2(O)C(=O)CO", "note": "[Cortexolone]", "general growth inhibition": 44.2}
{"smiles": "CN(C)C(N)=NCCC[C@H](N)C(=O)O", "note": "[N^G,N^G-Dimethylarginine hydrochloride]", "general growth inhibition": 31.2}
{"smiles": "O=C(O)c1cc(=O)c2ccccc2[nH]1", "note": "[Kynurenic acid]", "general growth inhibition": 32}
{"smiles": "CNC(=O)[C@H]1O[C@@H](n2cnc3c(NCc4cccc(I)c4)nc(Cl)nc32)[C@H](O)[C@@H]1O", "note": "[Chloro-IB-MECA]", "general growth inhibition": 14.2}
{"smiles": "C[C@]12CC[C@@H]3c4ccc(O)cc4C[C@@H](CCCCCCCCC[S+]([O-])CCCC(F)(F)C(F)(F)F)[C@H]3[C@@H]1CC[C@@H]2O", "note": "(some centres undefined) [Fulvestrant]", "general growth inhibition": 44.3}
{"smiles": "Cc1nc2ccccn2c(=O)c1CCN1CCC(C(=O)c2ccc(F)cc2)CC1", "note": "[Pirenperone]", "general growth inhibition": 42.3}
{"smiles": "CCN(CC)CCNC(=O)c1cc(Cl)c(N)cc1OC", "note": "[Metoclopramide hydrochloride]", "general growth inhibition": 42}
{"smiles": "Cc1ccc(-c2cc(C(F)(F)F)nn2-c2ccc(S(N)(=O)=O)cc2)cc1", "note": "[Celecoxib]", "general growth inhibition": 9.83}
{"smiles": "OC[C@H]1NC[C@H](O)[C@@H](O)[C@@H]1O", "note": "[1-Deoxynojirimycin hydrochloride]", "general growth inhibition": 37.6}
